From article PMC8944987, “In Vivo Efficacy of SQ109 against Leishmania donovani, Trypanosoma spp. and Toxoplasma gondii and In Vitro Activity of SQ109 Metabolites” (Biomedicines, 2022)

How the values were obtained:
[1] = system: T. cruzi Dm28c tissue-culture derived trypomastigotes; assay: T. cruzi tissue culture trypomastigotes (TCT) assay; assay type: cell-based; details: Trypanosoma cruzi, 24 h, 24 h treatment; Figure 2B; read-out: IC50, T. cruzi trypomastigotes (TCTs)
[2] = system: T. cruzi Dm28c epimastigotes; assay: T. cruzi epimastigotes assay (resazurin); assay type: cell-based; details: Trypanosoma cruzi; 72 h; Figure 2C; read-out: IC50, T. cruzi epimastigote growth inhibition (resazurin reduction)
Procedure: The exponential growth phase of epimastigotes were treated with different concentrations of drugs or 0.1% DMSO as negative control and incubated for 3 days at 28 °C. The viability of parasites was quantified with resazurin as described in the T. brucei assay.

O=C(Cn1ccnc1[N+](=O)[O-])NCc1ccccc1 [benznidazole]
IC50 [1]: 59.7 µM | IC50 [2]: 3.25 µM
